This series relates to histidine tagged peptide - nickel FlashPlate binding. In words: Tolerance of nickel FlashPlates to common assay reagents (binding of histidine tagged peptide to nickel FlashPlate).
Setting [1] is: maximal concentration which did not interfere with binding of the histidine tagged peptide to the FlashPlate.

As for `CCO` [EtOH], the “Maximum concentration tolerated in assay” value under setting [1] is below 25%.

For the compound `O[C@H](CS)[C@H](O)CS` (racemic) [DTT, dithiothreitol], the “Maximum concentration tolerated in assay” value (maximal concentration of DTT which did not interfere with binding to the FlashPlate) was 1 mM.

Regarding Triton-X-100, the “Maximum concentration tolerated in assay” value under setting [1] is given as 1%.

Consider `C[S+](C)[O-]` [DMSO, dimethylsulfoxide], for which, for the setting “final assay concentration in the reaction phase”, the “final assay concentration that did not interfere with histidine-nickel interaction and was suitable for assay of transferase activity” value amounted to 10%. Under setting [1], the “Maximum concentration tolerated in assay” value is recorded as 10%.

Consider NP 40, for which the “Maximum concentration tolerated in assay” value under setting [1] is on record as 1%.

As to `CO` [MeOH], the “Maximum concentration tolerated in assay” value under setting [1] was below 25%.

Tween-20: the “Maximum concentration tolerated in assay” value under setting [1] is on record as 1%.

The values are drawn from patent publication US6146842A, “High-throughput screening assays utilizing metal-chelate capture” (Mitotix, Inc., priority 1999, dated 2000).
